This passage reports binding results from publication PMC7956269.

The target of this experiment is Biotin-FOXC1 (mouse) (UniProt Q61572). Kind of experiment: affinity purification with mass spectrometry; streptavidin-agarose precipitation of biotinylated FOXC1 from nuclear extract of stable HEK293T cells (293T-Biotin-FOXC1); IP350 buffer (350 mM NaCl, 20 mM Tris-HCl pH 7.5, 0.5% NP40, 1 mM EDTA, 10% glycerin); SDS-PAGE, LC-ESI-MS/MS; proteins of the 293T-Biotin control deducted.

No constants are given. Whether binding was seen depends on the method and setting. In cells and extracts the contact can be indirect. Here binding means that the protein was enriched with, or labelled near, the bait; the list need not be complete.

B1: Zc3h18 (protein, UniProt Q86VM9 1-953)
chain: MDVAESPERDPHSPEDEEQPQGLSDDDILRDSGSDQDLDGAGVRASDLEDEESAARGPSQEEEDNHSDEEDRASEPKSQDQDSEVNELSRGPTSSPCEEEGDEGEEDRTSDLRDEASSVTRELDEHELDYDEEVPEEPAPAVQEDEAEKAGAEDDEEKGEGTPREEGKAGVQSVGEKESLEAAKEKKKEDDDGEIDDGEIDDDDLEEGEVKDPSDRKVRPRPTCRFFMKGNCTWGMNCRFIHPGVNDKGNYSLITKADPFPPNGAPPLGPHPLMPANPWGGPVVDEILPPPPPEPPTESAWERGLRHAKEVLKKATIRKEQEPDFEEKRFTVTIGEDEREFDKENEVFRDWNSRIPRDVRDTVLEPYADPYYDYEIERFWRGGQYENFRVQYTETEPYHNYRERERERERENRQRERERERERDRERERRQRERERERERERDKERQRRKEEWERERAKRDEKDRQHRDRDREKEREKEKGKPKPRSPQPPSRQAEPPKKEAATTGPQVKRADEWKDPWRRSKSPKKKLGVSVSPSRARRRRKTSASSASASNSSRSSSRSSSYSGSGSSRSRSRSSSYSSYSSRSSRHSSFSGSRSRSRSFSSSPSPSPTPSPHRPSIRTKGEPAPPPGKAGEKSVKKPAPPPAPPQATKTTAPVPEPTKPGDPREARRKERPARTPPRRRTLSGSGSGSGSSYSGSSSRSRSLSVSSVSSVSSATSSSSSAHSVDSEDMYADLASPVSSASSRSPAPAQTRKEKGKSKKEDGVKEEKRKRDSSTQPPKSAKPPAGGKSSQQPSTPQQAPPGQPQQGTFVAHKEIKLTLLNKAADKGSRKRYEPSDKDRQSPPPAKRPNTSPDRGSRDRKSGGRLGSPKPERQRGQNSKAPAAPADRKRQLSPQSKSSSKVTSVPGKASDPGAASTKSGKASTLSRREELLKQLKAVEDAIARKRAKIPGKA
Consider B1, for which the binding result is given as “binds”.

B2: Pds5b (protein, UniProt Q9NTI5 1-1447)
chain: MAHSKTRTNDGKITYPPGVKEISDKISKEEMVRRLKMVVKTFMDMDQDSEEEKELYLNLALHLASDFFLKHPDKDVRLLVACCLADIFRIYAPEAPYTSPDKLKDIFMFITRQLKGLEDTKSPQFNRYFYLLENIAWVKSYNICFELEDSNEIFTQLYRTLFSVINNGHNQKVHMHMVDLMSSIICEGDTVSQELLDTVLVNLVPAHKNLNKQAYDLAKALLKRTAQAIEPYITNFFNQVLMLGKTSISDLSEHVFDLILELYNIDSHLLLSVLPQLEFKLKSNDNEERLQVVKLLAKMFGAKDSELASQNKPLWQCYLGRFNDIHVPIRLECVKFASHCLMNHPDLAKDLTEYLKVRSHDPEEAIRHDVIVSIVTAAKKDILLVNDHLLNFVRERTLDKRWRVRKEAMMGLAQIYKKYALQSAAGKDAAKQIAWIKDKLLHIYYQNSIDDRLLVERIFAQYMVPHNLETTERMKCLYYLYATLDLNAVKALNEMWKCQNLLRHQVKDLLDLIKQPKTDASVKAIFSKVMVITRNLPDPGKAQDFMKKFTQVLEDDEKIRKQLEVLVSPTCSCKQAEGCVREITKKLGNPKQPTNPFLEMIKFLLERIAPVHIDTESISALIKQVNKSIDGTADDEDEGVPTDQAIRAGLELLKVLSFTHPISFHSAETFESLLACLKMDDEKVAEAALQIFKNTGSKIEEDFPHIRSALLPVLHHKSKKGPPRQAKYAIHCIHAIFSSKETQFAQIFEPLHKSLDPSNLEHLITPLVTIGHIALLAPDQFAAPLKSLVATFIVKDLLMNDRLPGKKTTKLWVPDEEVSPETMVKIQAIKMMVRWLLGMKNNHSKSGTSTLRLLTTILHSDGDLTEQGKISKPDMSRLRLAAGSAIVKLAQEPCYHEIITLEQYQLCALAINDECYQVRQVFAQKLHKGLSRLRLPLEYMAICALCAKDPVKERRAHARQCLVKNINVRREYLKQHAAVSEKLLSLLPEYVVPYTIHLLAHDPDYVKVQDIEQLKDVKECLWFVLEILMAKNENNSHAFIRKMVENIKQTKDAQGPDDAKMNEKLYTVCDVAMNIIMSKSTTYSLESPKDPVLPARFFTQPDKNFSNTKNYLPPEMKSFFTPGKPKTTNVLGAVNKPLSSAGKQSQTKSSRMETVSNASSSSNPSSPGRIKGRLDSSEMDHSENEDYTMSSPLPGKKSDKRDDSDLVRSELEKPRGRKKTPVTEQEEKLGMDDLTKLVQEQKPKGSQRSRKRGHTASESDEQQWPEEKRLKEDILENEDEQNSPPKKGKRGRPPKPLGGGTPKEEPTMKTSKKGSKKKSGPPAPEEEEEEERQSGNTEQKSKSKQHRVSRRAQQRAESPESSAIESTQSTPQKGRGRPSKTPSPSQPKKNVRVGRSKQAATKENDSSEEVDVFQGSSPVDDIPQEETEEEEVSTVNVRRRSAKRERR
Take B2: the binding result is reported as “binds”.
